Data reported in PMC6970927.
These are yes or no findings as the source states them, for the method shown.

By UniProt entry, the sequences of proteins in these tests, tags left out. Residues count along the entry.
UniProt P03418: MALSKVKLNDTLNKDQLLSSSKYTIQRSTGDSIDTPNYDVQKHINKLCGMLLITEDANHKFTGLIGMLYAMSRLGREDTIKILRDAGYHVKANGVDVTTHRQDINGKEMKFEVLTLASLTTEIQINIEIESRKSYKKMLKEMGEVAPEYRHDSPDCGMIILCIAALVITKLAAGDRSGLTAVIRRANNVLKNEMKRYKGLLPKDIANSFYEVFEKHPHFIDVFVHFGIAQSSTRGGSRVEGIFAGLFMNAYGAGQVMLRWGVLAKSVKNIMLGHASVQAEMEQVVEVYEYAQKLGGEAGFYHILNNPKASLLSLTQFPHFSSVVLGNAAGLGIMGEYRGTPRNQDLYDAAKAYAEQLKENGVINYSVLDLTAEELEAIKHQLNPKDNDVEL
UniProt P03421, residues 1-126: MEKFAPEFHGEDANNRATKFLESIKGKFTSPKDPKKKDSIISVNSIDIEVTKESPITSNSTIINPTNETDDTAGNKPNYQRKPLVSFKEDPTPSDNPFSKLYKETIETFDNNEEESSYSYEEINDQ

Molecular target: RSV nucleoprotein (N), full length, residues 1–391 (respiratory syncytial virus (RSV)) (UniProt P03418)
Test: condition: only after addition of RNA oligo Tr45 (20 uM RNA to 13.3 uM N^0–PNTD); SEC; purified N^0–PNTD (13.3 uM) incubated with RNA oligo Tr45 (20 uM), 1 h, room temperature, 20 mM HEPES pH 7.4, 200 mM NaCl; Superdex 200 Increase 10/300 GL; SDS-PAGE of peak 0; both purified

N-terminal domain of the RSV phosphoprotein (PNTD), residues 1–126 (from UniProt P03421 1-126) (domain or fragment)
binding: no binding
